These are yes or no findings as the source states them, for the method shown. Binding calls can cover weak binding; strength is not graded here.
Target: OgpA H205A/E206A, catalytically inactive variant (Akkermansia muciniphila)
Experiment: crystal structure; co-crystallization of OgpA H205A/E206A at 10 mg/ml in 20 mM Tris-HCl pH 7.6 with 2.5 mM GD; 100 mM MIB pH 5.0, 25% PEG 1,500; space group I 4, 2.16 Å; both purified

- binding: binds
Binder: GKPRPYSPRPTSHPRPIRV (Gal-GalNAc O-linked on T11) [glycodrosocin O-glycopeptide …(Gal-GalNAc)SHPRPIRV]

— article PMC7518263
